This series has as its system CD8+ TILs. Put plainly: scRNA-seq / CITEseq differential expression among CD8+ TIL clusters. Conditions: differentially expressed genes among the 12 clusters of CD8+ TILs, adjusted P value < 0.05. The arrangement: species or system human.

Turning to CCL4, the avg_logFC is 1.409 (Cluster 3: CD8 Effectors) and −2.356 (Cluster 7: NK-like).

For the origin of these results see patent US20240091259A1, “GENERATION OF ANTI-TUMOR T CELLS” (Dana-Farber Cancer Institute, Inc., priority 2022, published 2024).
